The other results are listed elsewhere or left out. Shown are side measurements of this screen, not its main read-out; they come without a call. Compounds called inactive in the main read-out are mostly missing here. The note in brackets gives the kind of curve behind each potency; many fits are weak.
Experiment: qHTS Assay for Modulators of Lamin A Splicing
Conditions: HeLa LMNA splicing GFP/RFP minigene ratio, 48 h
Procedure, shortened: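 S3 HeLa cells stably expressing lamin A-EGFP splicing minigene plus DsRed2, 600 cells/well, 48 h compound exposure at 37C. Laser-scanning cytometry; analysed as GFP (500-530 nm)/RFP (575-640 nm) total intensity ratio; 0.5% DMSO vehicle.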

[1] = measured here: GFP splicing reporter channel
[2] = measured here: RFP viability control channel

SMILES	AC50 [1]	AC50 [2]
CCCC(=O)N1N=C(c2ccccc2)CC1c1cn(C)c2ccccc12 (configuration not stated)	15.8 µM [rising, single point]	22.4 µM [rising, single point]
CCOC(=O)C1(Cc2cccc(Cl)c2)CCCN(C2CCN(C(C)=O)CC2)C1 (configuration not stated)		0.0316 µM [falling, full curve, poor fit]
Cc1ccc(C)c(NC(=S)NCCSc2ccc(Cl)cc2)c1	22.4 µM [rising, single point]	35.5 µM [rising, single point]
CN1CCN(c2ncc3nc(-c4cn(C)c5ccccc45)c(=O)n(C)c3n2)CC1	25.1 µM [falling, partial curve, poor fit]	
Cc1sc(NC(=O)c2ccco2)c(C(c2cccnc2)N2CCN(c3ccc(F)cc3)CC2)c1C (configuration not stated)	2 µM [rising, partial curve, poor fit]	0.447 µM [rising, full curve, poor fit]
COC(=O)c1ccccc1NC(=S)N(Cc1ccc2c(c1)OCO2)Cc1cc2cc(OC)ccc2[nH]c1=O		12.6 µM [rising, single point]
Cc1cc(=O)[nH]c(SCC(=O)Nc2cccc(C(F)(F)F)c2)n1		35.5 µM [rising, single point]
Cc1c(C(=O)OCC(=O)Nc2cccc(S(N)(=O)=O)c2)oc2c1ccc1ccccc12	8.91 µM [rising, partial curve, poor fit]	
COc1cc(C(=O)Nc2nnc(C3CC3)s2)ccc1OCc1c(C)noc1C	0.00355 µM [rising, full curve, poor fit]	
NNC(=S)NC1CCCCC1	20 µM [rising, single point]	12.6 µM [rising, single point]
Cn1c(-n2cccc2)c(-c2c(-c3ccc(F)cc3)[nH]c3c2c(=O)n(C)c(=O)n3C)c(=O)n(C)c1=O		0.0316 µM [falling, full curve, poor fit]
Cc1noc(C)c1COC(=O)c1cccc(N(C)C)c1	10 µM [falling, partial curve, poor fit]	0.0316 µM [falling, full curve, poor fit]
CN(C)CC/C=C1\c2ccccc2COc2ccccc21	0.0224 µM [falling, full curve, poor fit]	0.398 µM [falling, single point]
CC1CC(C)CN(S(=O)(=O)c2ccc(NC(=O)C3COc4ccccc4O3)cc2)C1 (configuration not stated)		25.1 µM [rising, single point]
CC1=C(c2ccc(C(C)C)cc2)S(=O)(=O)N=C1N1CCC(C(=O)NCc2ccccc2)CC1	22.4 µM [falling, partial curve, poor fit]	22.4 µM [falling, partial curve, poor fit]
COC(=O)c1cc(-c2ccc(C)o2)nc2ccccc12	11.2 µM [falling, single point]	11.2 µM [falling, partial curve]
CN1[C@@H]2CC[C@H]1CC(OC(=O)[C@@H](CO)c1ccccc1)C2 (some centres not stated)	0.355 µM [falling, full curve, poor fit]	

One compound at a time, as listed above:
`CN(C)CC/C=C1\c2ccccc2COc2ccccc21` as listed: AC50 [1]: 0.0224 µM [falling, full curve, poor fit]; AC50 [2]: 0.398 µM [falling, single point]
`NNC(=S)NC1CCCCC1` as listed: AC50 [1]: 20 µM [rising, single point]; AC50 [2]: 12.6 µM [rising, single point]

(listing goes on)

SMILES	AC50 [1]	AC50 [2]
COc1ccc(S(=O)(=O)N2CCc3ccccc32)cc1C(=O)OCc1c(C)noc1C	14.1 µM [rising, single point]	15.8 µM [rising, single point]
Cn1c(=O)oc2cc(S(=O)(=O)Nc3cccc4c3CCCC4)ccc21		11.2 µM [rising, partial curve]
COc1cc(C2C3=C(CCCC3=O)Nc3ccc4ncccc4c32)ccc1O (configuration not stated)		4.47 µM [rising, partial curve, poor fit]
O=C(NC(=S)Nc1ccc(-c2nc3ncccc3o2)cc1)c1ccccc1F		0.355 µM [rising, partial curve, poor fit]
COc1ccc(OC)c(S(=O)(=O)N(C)CC(=O)Nc2cc(Cl)ccc2OC)c1		35.5 µM [rising, single point]
CC(=O)c1cnc(Nc2ccccc2)s1	11.2 µM [rising, single point]	
O=C(COc1cccc(NC(=O)c2ccccc2)c1)c1ccc(F)cc1	17.8 µM [rising, single point]	35.5 µM [rising, single point]
Cc1ccccc1Cn1cnc2c(NS(C)(=O)=O)c(C)c(C)cc21		22.4 µM [rising, single point]
N/C(=N\OC(=O)c1ccco1)c1ccc(Br)cc1	2.51 µM [rising, partial curve]	3.16 µM [rising, single point]
Cc1ccc(NC(=O)CCc2c(C)nn(-c3ccc(N4CCOCC4)nn3)c2C)c(C)c1		4.47 µM [rising, partial curve, poor fit]
O=C(CSc1cccc(C(F)(F)F)c1)Nc1cc(S(=O)(=O)N2CCCC2)ccc1Cl	35.5 µM [rising, single point]	35.5 µM [rising, single point]
CCCCN(CC)C(=O)CSc1nc2n[nH]c(C)c2c(=N)n1-c1cccc(C)c1		0.00501 µM [falling, partial curve, poor fit]
CCc1c(C)sc(NC(=O)c2cccs2)c1C(=O)OC(C)C	12.6 µM [rising, single point]	
CCCCN(C)Cc1c(C(=O)N2CCc3ccccc3C2)nc2ccc(Cl)cn12		39.8 µM [falling, partial curve, poor fit]
CC[C@H](C(=O)[C@H](C)[C@H](O)[C@H](C)CCc1ccc(C)c(O)c1C(=O)O)[C@H]1O[C@](CC)([C@@H]2CC[C@@](O)(CC)[C@H](C)O2)C[C@H]1C	10 µM [falling, single point]	10 µM [falling, single point]
Cc1ccc(S(=O)(=O)N2CCC(C(=O)Nc3ccccc3N3CCCCC3)CC2)cc1	1 µM [rising, full curve, poor fit]	20 µM [rising, partial curve, poor fit]

Source: PubChem BioAssay AID1487 (National Center for Advancing Translational Sciences (NCATS), 2009)
